Out of some 360,000 compounds screened, about 10,000 (2.8%) were called active. Inconclusive results, whose numbers are uncertain, are shown with a selection of clear calls. The call rests on the fitted dose curve; in most records, active means well fitted inhibition curve with a large enough effect; inconclusive means small, poorly fitted or top-dose-only effect; inactive means flat fitted curve, though single readings scatter. Potencies of inconclusive entries are doubtful fits and often do not repeat.
Molecular target: Serine/threonine-protein kinase PLK1 (Homo sapiens) (UniProt P53350)
Assay: qHTS for Inhibitors of PLK1-PDB (polo-like kinase 1 - polo-box domain): Primary Screen; further: nearly all actives have a fitted effect of over 65% in size; on max response, negative = inhibition: series mostly up to about 57 µM
Conditions: Plk1 PBD binding of FITC phosphopeptide, fluorescence polarization
On the % scale 0 is the no-effect control and ±100 the full control effect; potency means the concentration at half of the fitted maximal effect.

Amino acid sequences for entries named in this document (tags omitted).
UniProt P53350, whole entry, looked up: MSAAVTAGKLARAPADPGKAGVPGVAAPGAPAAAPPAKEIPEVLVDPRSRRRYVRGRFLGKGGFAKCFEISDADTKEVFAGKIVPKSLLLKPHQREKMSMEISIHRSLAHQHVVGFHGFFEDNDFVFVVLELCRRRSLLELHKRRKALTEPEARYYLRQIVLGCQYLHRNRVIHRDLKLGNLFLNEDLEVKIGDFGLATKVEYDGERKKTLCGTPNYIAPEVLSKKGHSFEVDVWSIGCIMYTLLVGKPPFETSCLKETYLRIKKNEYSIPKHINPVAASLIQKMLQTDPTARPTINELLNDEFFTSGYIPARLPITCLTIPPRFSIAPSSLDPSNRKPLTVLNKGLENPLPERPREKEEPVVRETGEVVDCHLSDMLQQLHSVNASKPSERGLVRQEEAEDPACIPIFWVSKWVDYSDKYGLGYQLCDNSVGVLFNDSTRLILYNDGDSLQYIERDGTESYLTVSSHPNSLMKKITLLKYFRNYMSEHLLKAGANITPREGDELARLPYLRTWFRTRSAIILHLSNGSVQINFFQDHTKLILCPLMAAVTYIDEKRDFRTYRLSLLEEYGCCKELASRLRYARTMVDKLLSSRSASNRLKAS

SMILES	max response, negative = inhibition	Potency
Cc1ccc(C2C(C#N)=C(N)OC3=C2C(=O)CC(C)(C)C3)s1 (stereo not given)	inconclusive: -31.7% [inhibitor]	
O=C(CSc1nc2ccccc2[nH]1)N=Nc1c(O)[nH]c2ccccc12		inconclusive: 26.7 µM [inhibitor, partial curve]
COc1ccccc1N1CCN(C(=O)C2CCCN(S(=O)(=O)c3ccc(C)cc3)C2)CC1 (stereo not given)		inconclusive: 26.7 µM [inhibitor, partial curve]
Cc1cc(NC(=O)CS(=O)(=O)c2c[nH]c3ccccc23)no1	inactive: 1.89%	
O=C(CSc1nc2cc(S(=O)(=O)N3CCOCC3)ccc2o1)NC1CCCc2ccccc21 (stereo not given)		active: 6.7 µM
CCCCC(CC)CN=C(N)NC(N)=NCCCCCCN=C(N)NC(N)=NCC(CC)CCCC (stereo not given)	inconclusive: -34.7% [inhibitor]	
COc1cc(NC(=S)NCCO)c(OC)cc1Cl		inconclusive: 26.7 µM [inhibitor, partial curve]
Cc1cc2nnc(SC(C)C#N)n2c2ccccc12 (stereo not given)		active: 21.2 µM
Cc1ccc(-n2c3nc(=O)[nH]c(=O)c-3cc3c(C)nn(-c4ccccc4)c32)c(C)c1	inconclusive: -30.4% [inhibitor]	
CC(C)(C)c1ccc(C(=O)OC/C(O)=C(\C#N)c2nc3ccccc3s2)cc1		inconclusive: 26.7 µM [inhibitor, single point]
Cc1ccc(C(=O)CNc2ccc(C)cc2C)cc1		inconclusive: 29.9 µM [inhibitor, partial curve]
CC1=C(CC/C(C)=N/NC(N)=S)C(C)(C)CCC1		inconclusive: 28.2 µM [inhibitor, partial curve]
O=C(CSCC(=O)c1ccccc1)Nc1ccccc1Cl		inconclusive: 21.2 µM [inhibitor, single point]
CCOC(=O)C1CCCN(C(=O)Cc2ccc(C)cc2)C1 (stereo not given)		active: 26.7 µM
Cc1cccc(Nc2nnc(SCC(=O)Nc3cccc(S(=O)(=O)N4CCCCC4)c3)s2)c1		inconclusive: 23.8 µM [inhibitor, partial curve, poor fit]
O=C(CCNC(=O)c1ccccc1)OCN1C(=O)c2ccccc2C1=O		inconclusive: 23.8 µM [inhibitor, single point]
C=C(C)Cn1c(SCC(=O)N/N=C/c2ccccc2)nc2ccccc2c1=O		inconclusive: 37.7 µM [inhibitor, partial curve]
CN(C)S(=O)(=O)c1ccc2c(c1)C(CC(=O)O)OC2=O (stereo not given)		inconclusive: 21.2 µM [inhibitor, single point]
COc1ccc(C(C)=O)cc1CSc1ccc(S(=O)(=O)N2CCCCC2)cn1		inconclusive: 11.9 µM [inhibitor, partial curve]
C#CCn1c(=NC(=O)CN2C(=O)CCC2=O)sc2cc(S(N)(=O)=O)ccc21	inactive: -18.1%	
CCOC(=O)C1CCCN(Cc2cn[nH]c2-c2ccc(F)cc2F)C1 (stereo not given)		inconclusive: 18.9 µM [inhibitor, partial curve]
O=[N+]([O-])c1ccccc1CN1CCN(S(=O)(=O)Cc2ccccc2)CC1	inactive: -15%	
Cc1cc(NC(=O)CSc2ccccc2)no1	inconclusive: -30.8% [inhibitor]	

Of the compounds above, these contain a cyano group:
SMILES	max response, negative = inhibition	Potency
Cc1ccc(C2C(C#N)=C(N)OC3=C2C(=O)CC(C)(C)C3)s1 (stereo not given)	inconclusive: -31.7% [inhibitor]	
Cc1cc2nnc(SC(C)C#N)n2c2ccccc12 (stereo not given)		active: 21.2 µM
CC(C)(C)c1ccc(C(=O)OC/C(O)=C(\C#N)c2nc3ccccc3s2)cc1		inconclusive: 26.7 µM [inhibitor, single point]

Next part.

SMILES	max response, negative = inhibition	Potency
COc1ccc(Nc2nc(N)nc(CN3CCc4ccccc4C3)n2)cc1		inconclusive: 33.6 µM [inhibitor, single point]
O=S(=O)(Nc1ccccc1)c1ccc(-c2csnn2)cc1	inactive: -0.452%	
Cc1ccc(-n2ccnc2SCC(=O)O)cc1C		inconclusive: 7.52 µM [inhibitor, full curve]
CC(C)C(C(=O)O)N1C(=O)/C(=C/C=C/c2ccco2)SC1=S (stereo not given)		active: 2.99 µM
Cc1nc(-c2ccc(S(=O)(=O)Nc3ccc(Br)cc3Cl)s2)cs1		inconclusive: 37.7 µM [inhibitor, single point]
C=CCOC(=O)C1=C[C@@H](C2CCCCC2)C[C@@H](OCc2ccc(CO)cc2)O1	inactive: -14.3%	
CC(=O)Nc1ccc(S(=O)(=O)NCC(=O)NCCCc2ccccc2)cc1		inconclusive: 37.7 µM [inhibitor, single point]
CCOC(=O)C(NC(=O)Nc1ncccn1)(Oc1ccccc1)C(F)(F)F (stereo not given)		inconclusive: 10.6 µM [inhibitor, partial curve]
COc1ccccc1NC(=S)c1ccccc1		active: 26.7 µM
CCO/C=C1/C(=O)N(Cc2ccccc2)C(=O)c2ccccc21	inconclusive: -31.6% [inhibitor]	
COc1ccc(-c2cn[nH]c2-c2ccc(OC)cc2O)cc1		inconclusive: 29.9 µM [inhibitor, single point]
CSc1nccn1C(=O)c1ccccc1[N+](=O)[O-]		inconclusive: 33.6 µM [inhibitor, partial curve]
Cc1ccccc1OCC(=O)NN1Cc2ccccc2C1=N		active: 26.7 µM
O=C(CSCc1ccc(F)cc1)Nc1nc2c(s1)CCCC2		inconclusive: 29.9 µM [inhibitor, partial curve]
O=C(Nc1ccccc1C(=O)O)c1cc(S(=O)(=O)N2CCCCC2)cs1		inconclusive: 23.8 µM [inhibitor, partial curve]
O=C(COC(=O)c1cc(S(=O)(=O)N2CCOCC2)ccc1Cl)Nc1ccccc1Cl	inactive: 3.35%	
COc1ccc(NC(=O)CSc2c(C)n[nH]c2C)cc1		inconclusive: 18.9 µM [inhibitor, partial curve]
O=C(O)/C=C/C(=O)Nc1ccc(SC(F)(F)C(F)(F)C(F)(F)F)cc1		inconclusive: 29.9 µM [inhibitor, single point]
CCc1nc2c(OCC(=O)N3CCOCC3)cccn2c1N(C=O)Cc1ccccc1	inactive: -3.65%	
c1c2c(cc3sc(N4CCCCC4)nc13)OCO2		inconclusive: 23.8 µM [inhibitor, single point]
COc1cc(CC(CC(=O)O)CC(C)OCc2ccccc2)cc(OC)c1 (stereo not given)	inactive: -11.6%	
C/C(CC(=O)NC(C)(C)C)=N\NC(=O)c1ccccc1N		active: 23.8 µM
